For at least one compound, name, drawing or mass did not settle the structure.
Experiments:
[1] = tested on: PIK3CA H1047R mutation knock-in MCF10A cells; assay: Impedimetric 3-dose response test of collective cell migration; assay type: cell-based; conditions: for change in impedance after treatment: 3 doses
[2] = tested on: PIK3CA knock-in MCF10A cells; assay: Comparative endpoint dose-response study of cell migration by high throughput microscopy; assay type: cell-based; conditions: cells migrating on anisotropic nanopatterns compared with flat surface

For `O=c1cc(N2CCOCC2)oc2c(-c3ccccc3)cccc12` [LY294002], the “cause of the observed impedance decrease” value ([1]; impedance correlated to distance traveled, low-dose vs high-dose treatment) was “migration inhibition, rather than due to the cytotoxicity of the inhibitor”, the “change in impedance after treatment” value ([1]; nanotextured (NP) surface) was “significant dose-dependent decreases in impedance” and the “change in impedance after treatment” value ([1]; untextured (UP) surface) was “significant dose-dependent decreases in impedance”. For the same compound, the “half max inhibitory concentration (IC50) for cell migration” value [2] was “higher”.

— patent publication US20210270801A1, “TOPOGRAPHICALLY GUIDED CELL MIGRATION DEVICES AND METHODS” (priority 2018, published 2021)
